Measured values: paper PMC12267381
No constants are given. Whether binding was seen depends on the method and setting. In cells and extracts the contact can be indirect. Some entries that bind do so weakly or less than the wild type.

B1: INSIG1 (protein, UniProt Q8BGI3 1-259)
chain: MPRLHDHVWNYPSAGAARPYSLPRGMIAAAACPQGPGVPEPEHAPRGQRAGTTGCSARPGSWHHDLVQRSLVLFSFGVVLALVLNLLQIQRNVTLFPDEVIATIFSSAWWVPPCCGTAAAVVGLLYPCIDSHLGEPHKFKREWASVMRCIAVFVGINHASAKLDFANNVQLSLTLAALSLGLWWTFDRSRSGLGLGITIAFLATLITQFLVYNGVYQYTSPDFLYIRSWLPCIFFSGGVTVGNIGRQLAMGVPEKPHSD
B2: INSIG2 (protein, UniProt Q91WG1 1-225)
chain: MAEGETESPRPKKCGPYISSVTSQSVNVVIRGVVLFFIGVFLALVLNLLQIQRNVTLFPPDVITSIFSSAWWVPPCCGTASAVIGLLYPCIDRHLGEPHKFKREWSSVMRCVAVFVGINHASAKVDFDNNFQFSLTLAALSVGLWWTFDRSRSGFGLGVGIAFLATVVTQLLVYNGVYQYTSPDFLYVRSWLPCIFFAGGITMGNIGRQLAMYECKVIAEKSHQE
B3: metadherin (protein, UniProt Q80WJ7 1-579)
chain: MAARSWQDELAQQAEEGSARLRELLSVGLGFLRTELGLDLGLEPKRYPGWVILVGTGALGLLLLFLLGYGWAAACAGARKKRRSPPRKREEAAPPTPAPDDLAQLKNLRSEEQKKKNRKKLPEKPKPNGRTVEVPEDEVVRNPRSITAKQAPETDKKNEKSKKNKKKSKSDAKAVQNSSRHDGKEVDEGAWETKISHREKRQQRKRDKVLTDSGSLDSTIPGIENIITVTTEQLTTASFPVGSKKNKGDSHLNVQVSNFKSGKGDSTLQVSSRLNENLTVNGGGWSEKSVKLSSQLSEEKWNSVPPASAGKRKTEPSAWTQDTGDTNANGKDWGRNWSDRSIFSGIGSTAEPVSQSTTSDYQWDVSRNQPYIDDEWSGLNGLSSADPSSDWNAPAEEWGNWVDEDRASLLKSQEPISNDQKVSDDDKEKGEGALPTGKSKKKKKKKKKQGEDNSHTQDTEDLEKDTREELPVNTSKARPKQEKACSLKTMSTSDPAEVLIKNSQPVKTLPPAISAEPSITLSKGDSDNSSSQVPPMLQDTDKPKSNAKQNSVPPSQTKSETNWESPKQIKKKKKARRET

Molecular target: T1, Sterol regulatory element binding protein 1 (mouse (endogenous in bEND.3)) (UniProt Q9WTN3)
T1 sequence: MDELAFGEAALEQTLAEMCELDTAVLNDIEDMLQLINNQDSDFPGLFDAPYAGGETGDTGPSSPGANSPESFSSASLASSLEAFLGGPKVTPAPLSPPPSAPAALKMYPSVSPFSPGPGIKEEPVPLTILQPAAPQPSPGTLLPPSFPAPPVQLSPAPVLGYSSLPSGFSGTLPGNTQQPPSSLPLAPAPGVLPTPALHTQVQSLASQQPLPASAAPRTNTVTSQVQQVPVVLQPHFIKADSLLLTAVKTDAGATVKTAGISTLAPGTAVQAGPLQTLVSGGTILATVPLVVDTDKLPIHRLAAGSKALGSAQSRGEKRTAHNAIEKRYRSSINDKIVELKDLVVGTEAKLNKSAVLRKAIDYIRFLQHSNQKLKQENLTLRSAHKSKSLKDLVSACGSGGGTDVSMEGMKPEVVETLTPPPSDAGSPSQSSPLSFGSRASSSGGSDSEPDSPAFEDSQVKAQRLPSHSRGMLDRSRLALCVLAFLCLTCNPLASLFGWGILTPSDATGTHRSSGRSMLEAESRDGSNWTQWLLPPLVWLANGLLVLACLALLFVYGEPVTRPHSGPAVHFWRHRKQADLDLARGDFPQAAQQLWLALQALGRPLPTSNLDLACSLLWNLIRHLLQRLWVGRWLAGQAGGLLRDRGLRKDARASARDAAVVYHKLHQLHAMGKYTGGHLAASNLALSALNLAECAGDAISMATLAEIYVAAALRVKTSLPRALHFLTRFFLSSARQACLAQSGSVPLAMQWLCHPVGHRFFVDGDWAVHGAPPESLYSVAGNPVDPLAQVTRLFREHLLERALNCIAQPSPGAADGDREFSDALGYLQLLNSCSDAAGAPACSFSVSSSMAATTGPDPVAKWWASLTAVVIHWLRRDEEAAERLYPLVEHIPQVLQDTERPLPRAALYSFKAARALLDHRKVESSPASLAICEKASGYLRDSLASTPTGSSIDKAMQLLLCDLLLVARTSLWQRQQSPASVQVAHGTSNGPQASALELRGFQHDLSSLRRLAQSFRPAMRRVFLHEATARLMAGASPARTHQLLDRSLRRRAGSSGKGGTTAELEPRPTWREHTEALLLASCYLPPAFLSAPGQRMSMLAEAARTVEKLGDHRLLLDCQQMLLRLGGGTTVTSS
Test: co-IP; anti-SREBP1 antibody (Santa Cruz sc-365513) and protein A/G magnetic beads added to lysate of bEND.3 endothelial cells, room temperature 2 h; immunoblot of the precipitate; cells treated for 24 h with Erastin or Erastin + SDF-1α, with or without MTDH siRNA

Row | Binder | binding
1 | B1 | binds
2 | B2 | binds
3 | B3 | binds
